# Data as given in PubChem BioAssay AID1224826 (NIAID, 2016)
# Screen: 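Regulators of Tlr4 signalling leading to Tnf-alpha expression in macrophages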 (primary screen)
# Cells: RAW264.7 G9 macrophages from mouse bearing reporters for p65 (GFP) and the Tnf promoter (mCherry)
# Knock-down reagent: siRNA pool against mouse genes, 100 nM
# Timing: 16 h of LPS stimulation, after 2 days of siRNA transfection
# Conditions: bacterial lipopolysaccharide (Salmonella minnesota R595), 10 ng/ml
# Detection: 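Nuclear mCherry signal of the Tnf promoter reporter measured by imaging after background removal, scaled to each plate median and turned into robust z-scores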
# Scale: Tnf reporter robust z-score: higher = stronger Tnf promoter reporter signal after LPS; Tnf reporter intensity: higher = stronger Tnf promoter reporter signal
# Hit rule: 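Called active when robust z-score is at most -1.3, matching the median of the Tlr4 knock-down control, or over 3; control wells and wells with under 50 cells never active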
# Meaning of the calls: active = Tnf reporter clearly lowered or raised; inactive = no clear change in Tnf reporter
# The whole screen tested about 17,000 reagents; below is a random part of them. About 1,110 of all reagents (6.6%) count as active. 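Active means lowered or raised reporter signal; replicate intensities are raw and not normalised per plate.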 The numbers tell different reagents against one gene apart. Not all columns of the deposit are shown. Reagent sequences are not shown.
gene,reagent no.,Tnf reporter robust z-score,fewer than 50 cells in well,"Tnf reporter intensity, replicate 1",Outcome
Pter,1,,fewer than 50 cells per well; well left out of calls,15.4,inactive
Eef1akmt1,1,1.62,enough cells in well,368,inactive
Marcks,1,-0.94,enough cells in well,182,inactive
Bdh1,1,-1.32,enough cells in well,59.4,active
Or4f53,1,2.1,enough cells in well,289,inactive
Mavs,1,0.99,enough cells in well,267,inactive
Krt17,1,-0.43,enough cells in well,219,inactive
Kcnn3,1,0.03,enough cells in well,202,inactive
Ntn3,1,-0.84,enough cells in well,213,inactive
Snx6,1,-0.47,enough cells in well,81.1,inactive
Frmd8,1,,fewer than 50 cells per well; well left out of calls,185,inactive
Mrgprb1,1,2.46,enough cells in well,244,inactive
Sh3glb1,1,3.38,enough cells in well,210,active
Polr1a,1,-1.63,enough cells in well,55.9,active
Or8b55,1,-0.75,enough cells in well,110,inactive
Otx2,1,,fewer than 50 cells per well; well left out of calls,58.3,inactive
Mfsd6l,1,-0.31,enough cells in well,169,inactive
Rnf213,1,-0.56,enough cells in well,134,inactive
Or13n4,1,0.37,enough cells in well,141,inactive
Cox5a,1,0.45,enough cells in well,245,inactive
Evi5l,1,-0.24,enough cells in well,188,inactive
Banf2,1,-0.69,enough cells in well,161,inactive
Actrt1,1,-0.46,enough cells in well,205,inactive
Homer3,1,-0.41,enough cells in well,266,inactive
Fkbp6,1,0.91,enough cells in well,320,inactive
Ptprr,1,-1.14,enough cells in well,124,inactive
Or4f4b,1,1.6,enough cells in well,309,inactive
Fyb1,1,0.43,enough cells in well,232,inactive
Get1,1,-0.12,enough cells in well,145,inactive
Mllt1,1,-0.34,enough cells in well,198,inactive

Individual results from above.
Result of Homer3 in “Outcome”: inactive
Under “fewer than 50 cells in well”, Mllt1 is entered as enough cells in well
Or8b55, fewer than 50 cells in well = enough cells in well
Mavs, Tnf reporter intensity, replicate 1 → 267

The list goes on.
gene,reagent no.,Tnf reporter robust z-score,fewer than 50 cells in well,"Tnf reporter intensity, replicate 1",Outcome
Iars2,1,0.83,enough cells in well,209,inactive
Adamts16,1,-0.81,enough cells in well,150,inactive
Large1,1,-1.02,enough cells in well,167,inactive
Or5ac19,1,-1.33,enough cells in well,107,active
Lap3,1,-0.13,enough cells in well,213,inactive
Sv2a,1,-1.32,enough cells in well,57.4,active
Prkg1,1,-0.06,enough cells in well,178,inactive
Meig1,1,-0.58,enough cells in well,163,inactive
Lias,1,0.69,enough cells in well,223,inactive
Aatk,1,-0.25,enough cells in well,111,inactive
Lzts2,1,2.01,enough cells in well,333,inactive
Tmem43,1,-1.02,enough cells in well,143,inactive
Gemin5,1,0.47,enough cells in well,257,inactive
Pwp2,1,-1.51,enough cells in well,67.3,active
Ythdf3,1,1.91,enough cells in well,212,inactive
Tmprss12,1,,fewer than 50 cells per well; well left out of calls,230,inactive
Camkv,1,2.72,enough cells in well,328,inactive
Or2d36,1,,fewer than 50 cells per well; well left out of calls,86.7,inactive
Or5w1b,1,-0.95,enough cells in well,137,inactive
Endou,1,1.15,enough cells in well,363,inactive
Col27a1,1,0.37,enough cells in well,231,inactive
Sfr1,1,-0.4,enough cells in well,157,inactive
Hrk,1,-0.57,enough cells in well,111,inactive
Trim29,1,2.86,enough cells in well,219,inactive
Zfand2a,1,-0.07,enough cells in well,195,inactive
Rpl22l1,1,,fewer than 50 cells per well; well left out of calls,121,inactive
Cox14,1,,fewer than 50 cells per well; well left out of calls,119,inactive
Wnt2b,1,0.02,enough cells in well,311,inactive
Tubg2,1,-0.63,enough cells in well,164,inactive
Arhgap6,1,-1.3,enough cells in well,105,active
Krtap13,1,0.01,enough cells in well,192,inactive
Chmp2b,1,0.34,enough cells in well,213,inactive
Tonsl,1,2.21,enough cells in well,238,inactive
D830016O14Rik,1,2.81,enough cells in well,430,inactive
Vmn1r13,1,,fewer than 50 cells per well; well left out of calls,127,inactive
Vmn2r122,1,0.35,enough cells in well,136,inactive
Vmn2r122,2,-0.63,enough cells in well,104,inactive
Trim69,1,2.36,enough cells in well,321,inactive
Mgat4b,1,-0.71,enough cells in well,175,inactive
Pomc,1,-0.75,enough cells in well,191,inactive
Tra2a,1,-0.91,enough cells in well,156,inactive
Tra2a,2,0.79,enough cells in well,211,inactive
Defa-rs10,1,2.54,enough cells in well,378,inactive
Txnl4b,1,1.12,enough cells in well,343,inactive
Smoc1,1,,fewer than 50 cells per well; well left out of calls,35.7,inactive
